# PubChem BioAssay AID2685 (National Center for Advancing Translational Sciences (NCATS), 2010)
# The other results are listed elsewhere or left out. Further columns of the screen follow, without active or inactive calls. Compounds called inactive in the main read-out are mostly missing here. The note in brackets gives the kind of curve behind each potency; many fits are weak.
# Test: qHTS Assay for Lipid Storage Modulators in Drosophila S3 Cells;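 for cell number change: cells counted by Cell Tracker Red CMTPX staining in the red channel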
# Settings: BODIPY lipid droplet fluorescence, 18-24 h; for cell number change: measured here: cell count max response, cells fed with added oleic acid
# Method in brief: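 Drosophila S3 cells loaded with oleic acid (400 uM, as added) and compounds at several concentrations; lipid droplets imaged by 488-nm laser-scanning cytometry, 500–530 nm intensity and object ratio to cell channel. Percent activity normalized to 20 uM Triacsin C.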
# [1] = measured here: cell number channel AC50, cells fed with added oleic acid
# [2] = measured here: lipid fluorescence (Fed channel) AC50, cells fed with added oleic acid
SMILES,cell number change [%],AC50 [1],AC50 [2]
COc1ccc(S(=O)(=O)NCC(c2cccs2)N2CCc3ccccc3C2)cc1 (configuration not stated),-50.8,"23.1 µM [falling, partial curve, poor fit]","25.9 µM [falling, partial curve, poor fit]"
O=C(NCCCN1CCOCC1)c1ccc2c(c1)N(Cc1c(F)cccc1Cl)C(=O)c1ccccc1S2,8.26,–,–
O=C(CNc1ccc2ccccc2c1)N/N=C/c1ccccn1,-11.5,–,"11.6 µM [falling, partial curve, poor fit]"
CCN(CC)S(=O)(=O)c1cc(C(=O)Oc2cccc(-c3cnc4ccccc4n3)c2)ccc1OC,9.95,"0.103 µM [falling, full curve, poor fit]",–
Clc1cccc(CN2COc3c(cc(Cl)c4cccnc34)C2)c1,-22.2,–,"2.06 µM [falling, partial curve]"
COc1cccc(-c2nc(CS(=O)(=O)CC(=O)NCCCN3CCOCC3)c(C)o2)c1,-45.2,"29.1 µM [falling, single point]",–
CCOC(=O)c1cnc(SCC(=O)N2CCc3ccccc32)nc1N,–,"6.51 µM [rising, single point]","1.84 µM [rising, partial curve]"
C[C@@H]1CCC(=O)N(CC[C@H](Sc2ccccc2)c2ccccc2)CC1,-1.94,–,"0.092 µM [falling, full curve, poor fit]"
CCOC(=O)C1CCCN(C(=O)C2CCN(c3nnc(-n4cccc4)s3)CC2)C1 (configuration not stated),–,–,"18.4 µM [falling, partial curve]"
COc1cccc(C(=O)Nc2cc(NC(=O)c3cccs3)ccc2C)c1OC,-42.8,"8.2 µM [falling, partial curve]",–
CCCCNC(=S)N1CCn2cccc2C1c1ccc(F)cc1 (configuration not stated),-30.2,"3.26 µM [falling, full curve, poor fit]","0.291 µM [falling, full curve]"
O=C(COC(=O)c1cccnc1Cl)c1ccc2c(c1)OCCO2,–,–,"3.26 µM [falling, partial curve]"
Cc1cc(NC(=O)c2cc(-c3ccc(O)cc3)on2)no1,-6.19,"0.92 µM [falling, full curve, poor fit]",–
Cc1ccc(C)n1-c1ccc(N2CCOCC2)cc1,–,"6.51 µM [rising, single point]",–
CCOC(=O)N1CCN(S(=O)(=O)c2ccc([N+](=O)[O-])cc2)CC1,-17.8,–,"25.9 µM [falling, single point]"
CCOc1ccc(Nc2nc3c(c(=O)[nH]2)CCCC3)cc1,-11.1,–,"16.4 µM [rising, partial curve, poor fit]"
Cc1ccc(NC(=O)NC2=NN(c3ccccc3)C(=O)/C2=C2/CCCN2C)cc1,-90.3,–,–
O=C(CSc1nc2c(sc3ccccc32)c(=O)n1CCCN1CCCC1)NCc1ccco1,19.3,"4.11 µM [rising, single point]","5.8 µM [rising, single point]"
CCOC(=O)C1CCN(S(=O)(=O)c2ccc3[nH]c(=O)oc3c2)CC1,6.72,–,–
NS(=O)(=O)c1ccc(CCNC(=O)c2cc([N+](=O)[O-])ccc2N2CCOCC2)cc1,-0.834,"2.06 µM [rising, partial curve]","6.51 µM [rising, single point]"

SMILES,cell number change [%],AC50 [1],AC50 [2]
CC(C)C[C@H](NC(=O)C1CC(=O)N(c2ccc3c(c2)OCCO3)C1)C(=O)NC1CCCC1 (some centres not stated),-7.65,–,–
COc1ccc(/C=C/CN2CCC(CO)(Cc3ccccc3Cl)CC2)cc1,-14.5,–,"18.4 µM [falling, single point]"
Cc1nn(Cc2ccc(Cl)cc2)c(C)c1NC(=O)/C=C/c1cnn(C)c1,-1.03,–,"2.91 µM [rising, partial curve]"
O=C(CN1CCN(S(=O)(=O)c2ccc3ccccc3c2)CC1)N1CCc2ccccc2C1,1.88,–,"11.6 µM [rising, partial curve, poor fit]"
Cc1cc(Cl)cc(C)c1OCCCCCn1ccnc1,-9.62,–,–
COc1ccc(N(C)S(=O)(=O)c2cccc(C(=O)NC3CCCC3)c2)cc1,25.5,–,–
CC(C)(C)SCCNC(=O)c1ccc(NS(C)(=O)=O)cc1,8.56,–,"14.6 µM [rising, partial curve]"
Cc1ccccc1NC(=O)N1c2ccccc2CC1C (configuration not stated),145,–,"0.82 µM [falling, single point]"
Cc1cc(=O)oc2cc(OCC(=O)N/N=C/c3cc([N+](=O)[O-])ccc3O)ccc12,9.08,–,"0.184 µM [rising, full curve, poor fit]"
COc1ccc(OC)c(NS(=O)(=O)c2ccc(NC(=O)c3ccc(NS(C)(=O)=O)cc3)cc2)c1,58.4,"0.116 µM [rising, full curve]","0.326 µM [rising, partial curve, poor fit]"
O=C(CN1C(=O)c2ccccc2C1=O)Nc1nnc(C2CCCO2)s1 (configuration not stated),-16.3,–,"1.46 µM [rising, full curve, poor fit]"
O=C(CSc1ccc(-c2cccnc2)nn1)N1CCCCCC1,25.9,–,"14.6 µM [rising, partial curve]"
Cn1c(SCC(=O)NC2CC2)nnc1-c1ccccc1Cl,-19.5,–,"0.651 µM [falling, partial curve]"
CCCOc1ccc(C(=O)Nc2cc(S(=O)(=O)N3CCOCC3)ccc2N2CCOCC2)cc1,52.1,"23.1 µM [rising, single point]","23.1 µM [rising, single point]"
CC1CCN(S(=O)(=O)c2cccc(C(=O)O)c2)CC1,–,"6.51 µM [falling, single point]","29.1 µM [falling, single point]"
COC(=O)c1cc(S(=O)(=O)Nc2cccc(C)c2C)cn1C,12.6,–,"29.1 µM [rising, single point]"
CC(=O)Nc1ccc(NS(=O)(=O)c2ccc3c(c2)oc(=O)n3C)cc1,13.7,–,–
COc1ccc(N2C(=O)CC(Sc3nccc(C)n3)C2=O)cc1 (configuration not stated),-1.53,–,–
COC(=O)c1ccc(NC(=O)CSc2nncn2-c2ccccn2)cc1,-10.5,–,"0.447 µM [rising, full curve, poor fit]"
CC(=O)N/C(=C\c1ccccc1)C(=O)OC(C)C(=O)NCc1ccccc1 (configuration not stated),21,–,–

# Record cards (already shown). Order of values: cell number change [%] | AC50 [1] | AC50 [2]
# COC(=O)c1cc(S(=O)(=O)Nc2cccc(C)c2C)cn1C as listed: 12.6 | – | 29.1 µM [rising, single point]
# CC(=O)N/C(=C\c1ccccc1)C(=O)OC(C)C(=O)NCc1ccccc1 (configuration not stated) as listed: 21 | – | –
# COC(=O)c1ccc(NC(=O)CSc2nncn2-c2ccccn2)cc1 as listed: -10.5 | – | 0.447 µM [rising, full curve, poor fit]

# (continued)

SMILES,cell number change [%],AC50 [1],AC50 [2]
COC(=O)C1=C(C)OC(N)=C(C#N)C1c1ccccc1F (configuration not stated),-8.12,–,–
Cc1ccc(-c2csc(N=C(N)N)n2)c(C)c1,-53.4,"25.9 µM [falling, partial curve, poor fit]","8.2 µM [falling, partial curve]"
CCOC(=O)c1ccc(NC(=O)C2CCC(CNc3c(N4CCOCC4)c(=O)c3=O)CC2)cc1 (configuration not stated),13.9,–,"3.26 µM [rising, single point]"
Cc1ccc2nc3c(cc2c1)c(C)nn3-c1ccccc1,81,"29.1 µM [rising, partial curve, poor fit]","29.1 µM [rising, partial curve]"
COc1ccc(CCNC(=O)COC(=O)c2cc(OC)c(OC)cc2OC)cc1OC,-1.49,"0.651 µM [rising, full curve, poor fit]",–
COc1cc(F)ccc1S(=O)(=O)N1CCN(C23CC4CC(CC(C4)C2)C3)CC1,–,–,"1.46 µM [falling, full curve]"
C/C(=N\NC(=O)COc1ccc(C(C)(C)C)cc1)c1ccc(OC(F)F)cc1,-55.6,"16.4 µM [falling, single point]","16.4 µM [falling, partial curve]"
CCOC(=O)c1sc(-c2cccc([N+](=O)[O-])c2)cc1N,107,"29.1 µM [rising, partial curve, poor fit]","29.1 µM [rising, partial curve]"
Cc1ccc(OCCCC(=O)Nc2ccc(N3CCOCC3)cc2)cc1,-15.7,–,"0.00517 µM [rising, full curve, poor fit]"
Cc1ccc(S(=O)(=O)N2CCN(C(=O)CN3CCCCC3)C2C(C)C)cc1 (configuration not stated),-27.9,"0.731 µM [falling, full curve]","3.26 µM [falling, full curve]"
CC(=O)c1ccc(NC(=O)c2cccc(NC(=O)c3ccccc3)c2)cc1,20.2,–,"29.1 µM [falling, single point]"
CC(=O)c1ccc(S(=O)(=O)N(C)CC(=O)N2CCCCCC2)cc1,-8.51,"3.66 µM [rising, single point]",–
Cc1cnc(CN(C)Cc2c(C(=O)N3CCc4ccccc4C3)nc3ccc(Cl)cn23)[nH]1,17.4,–,–
Cc1cccc(C(=O)N[C@H](C(=O)OCC(=O)NC2CCS(=O)(=O)C2)C(C)C)c1 (some centres not stated),-9.79,–,"6.51 µM [falling, single point]"
Cc1ccc(S(=O)(=O)N2CCN(C(=O)COC(=O)CC(C)c3ccccc3)CC2)c(C)c1 (configuration not stated),66.7,"25.9 µM [rising, single point]",–
C=CCNC(=O)C1CCCN(S(=O)(=O)c2ccc(-n3cnnn3)cc2)C1 (configuration not stated),-14.1,–,–
Cc1[nH]c2ccccc2c1C1(O)C(=O)N(Cc2ccc3c(c2)OCO3)c2ccccc21 (configuration not stated),-43.4,"29.1 µM [falling, single point]","16.4 µM [falling, single point]"
CCN(CC)S(=O)(=O)c1cccc(NC2=NCC(C)S2)c1 (configuration not stated),21.5,–,"29.1 µM [rising, single point]"
